# PubChem BioAssay AID504804 – Drosophila RNAi Screening Center – 2011
# Purpose: 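Fly genes whose loss lessens doxorubicin-driven cell death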 (primary screen)
# System: Drosophila Kc cells
# Reagents: long dsRNA against Drosophila genes, 0.5 µg dsRNA per well
# Duration: 96 h (48 h knock-down, then 48 h drug)
# Treatment: doxorubicin 5 µg/ml for 48 h, added 48 h after dsRNA
# Read-out: 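Viability measured as cellular ATP by luminescence after 48 h knock-down then 48 h doxorubicin at 5 µg/ml; unnormalised plate counts for each replicate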
# Reading the numbers: raw ATP luminescence: higher = more viable cells, protection from doxorubicin
# Call rule: 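Active when both duplicate wells lie at least 2 SD above the plate mean and protection is confirmed by rescreening and independent dsRNAs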
# In all, the deposit lists about 19,000 reagents; shown is an unselected part of those with a known target gene and a result. Of all reagents, 47 (0.25%) got an active call. 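Signals are raw, not normalised; exact z-scores behind calls not deposited; actives needed confirmation, so some wells reaching 2 SD are inactive.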 A number with no mark means an inactive call. The numbers tell different reagents against one gene apart. A plus sign joins genes that one reagent is predicted to hit.
Gene,reagent,SD above plate mean,"raw ATP luminescence, replicate 1","raw ATP luminescence, replicate 2"
Mabi,1,,49337,48700
FoxP,1,,59640,54193
CG10750,1,,94467,77733
Polr3D,1,,33577,15377
CG11714,1,,32507,41147
CG11786,1,,69760,56350
HHEX,1,,36470,36510
Plzf,1,,96400,77387
CG15012,1,,42497,38110
CG6125,1,,1.14e5,58190
CG7044,1,,73490,57790
CG33258,1,,78670,73900
Rh2,1,,38140,36940
mRpS2,1,,25763,23827
Prat,1,,46230,54543
Pdfr,1,,43830,45730
CG42449,1,,52790,56270
EndoGI,1,,56133,74803
PCID2,1,,39183,40757
ppk18,1,,40317,89120
CG46298,1,,48830,66667
TfIIB,1,,24893,35353
CG42233,1,,59500,56480
CG42233,2,,45790,71690
CG13841,1,,44310,46480
Prosbeta5R1,1,,19030,40373
Ass + CG31286,1,,64790,74147
CG14562,1,,69647,62243
CG32109,1,,77507,68390
Ugt303A1,1,,44327,46847
ATP8B,1,,34877,52100
CG4098,1,,54843,39393
CadN,1,,58523,68003
ND5 (retired record),1,,2.82e5,2.73e5
Pask,1,,77673,74513
Gnf1,1,,54713,60840
Myo31DF,1,at least 2 SD above plate mean (active),1.38e5,1.06e5
CG32645,1,,3.67e5,3.72e5
CG32645,2,,3.93e5,3.02e5
Socs16D,1,,3.02e5,1.87e5
Pfk,1,,51093,44063
CG32988,1,,32937,52673
Rrp4,1,,52113,48247
Spn43Aa,1,,58277,54373
CG10164,1,,2.26e5,2.05e5
CG5758,1,,65913,69087
CG5758,2,,69853,88663
Etl1,1,,87480,64297

14 consecutive entries already listed:
Gene,reagent,SD above plate mean,"raw ATP luminescence, replicate 1","raw ATP luminescence, replicate 2"
Prat,1,,46230,54543
Pdfr,1,,43830,45730
CG42449,1,,52790,56270
EndoGI,1,,56133,74803
PCID2,1,,39183,40757
ppk18,1,,40317,89120
CG46298,1,,48830,66667
TfIIB,1,,24893,35353
CG42233,1,,59500,56480
CG42233,2,,45790,71690
CG13841,1,,44310,46480
Prosbeta5R1,1,,19030,40373
Ass + CG31286,1,,64790,74147
CG14562,1,,69647,62243

The results go on:
Gene,reagent,SD above plate mean,"raw ATP luminescence, replicate 1","raw ATP luminescence, replicate 2"
CG34187 (retired record),1,,81763,92277
Naprt,1,,1.15e5,84750
CG33191 + Pif1B,1,,73357,61697
Pop4,1,,69123,82830
Mpc1,1,,78217,53677
CG16974,1,,1.24e5,53780
Hydr2,1,,1.17e5,78380
Sfp38D,1,,60540,44753
Rtf1,1,,1.01e5,73773
CG5388,1,,62900,59490
CG13473,1,,25737,23303
Obp56i,1,,1.04e5,1.04e5
CG3568,1,,40630,43610
CG7069,1,,36133,44650
mei-P22,1,,68020,75537
CG17712,1,,1.26e5,79770
scro,1,,2.58e5,2.54e5
scro,2,,54450,70660
DCX-EMAP,1,,45897,44340
DCX-EMAP,2,,61053,46637
CG14797,1,,44320,52510
CG34135 + Nasp,1,,60670,57377
CG8841,1,,76990,60767
CG15025,1,,79410,83900
Dip-C,1,,74163,30943
serp,1,,70617,62487
serp,2,,82883,72120
CG9547,1,,1.37e5,87943
Ilp4,1,,79190,79667
PGRP-SD,1,,82663,82143
CG5498,1,,25230,20130
stnB + stnA,1,,1.94e5,2.03e5
stnB + stnA,2,,2.30e5,2.70e5
stnB + stnA,3,,4.10e5,3.26e5
Jarid2,1,,38883,30327
rtet,1,,38457,40617
bdg,1,,48067,71593
CG15741,1,,3.17e5,2.68e5
CG16790,1,,61393,55093
CG33340,1,,63580,51980
Notum,1,,49963,49507
Snmp2,1,,68690,99243
Snmp2,2,,63090,77530
COX4L,1,,45340,50080
Akr1B,1,,46507,38207
nAChRalpha2,1,,41497,41537
Gr93a,1,,60060,73020
Reph,1,,1.12e5,84247
CG34462,1,,70913,60127
AstCC,1,,44440,77773
PpD5,1,,69063,87720
gcl,1,,66377,64077
Polr3C,1,,40293,23243
veli,1,,57160,54680
CG33453,1,,1.74e5,1.18e5
emp,1,,89353,89263
emp,2,,71073,81893
twit,1,,65487,73897
CG3769,1,,45203,81457
